{"source": "PubChem BioAssay AID504764 (Drosophila RNAi Screening Center, 2011)", "purpose": "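Genome-wide screen for regulators of Notch-driven gene expression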 (primary screen)", "cell system": "Drosophila Kc167 cells", "reagents": "long dsRNA against Drosophila genes", "timing": "about 5 days (4 days dsRNA, then 24 h after transfection)", "treatment": "transfection of constitutively active membrane-tethered Notch lacking the extracellular domain, read 24 h later", "measured": "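Firefly luciferase from an E(spl)m3 reporter with active Notch, plus control-promoter and uninduced reporter wells for normalisation; unnormalised counts, duplicate wells a and b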", "scale": "induced reporter light, run 1, well a and induced reporter light, run 1, well b: higher = more light from the Notch target reporter with active Notch; control promoter light, run 1, well a and control promoter light, run 1, well b: higher = more light from the viral control promoter (cell number, transfection, viability); uninduced reporter light, run 1, well a: higher = more light from the Notch target reporter without active Notch", "call rule": "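Wells with low control signal or poorly matching duplicates excluded; duplicates averaged; per source plate, z beyond ±2 for induced/control log2 ratio or beyond ±1.8 for induced/uninduced marks a hit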", "meaning of the calls": "active = modifier hit (raised or lowered Notch signal); inactive = not a hit", "note": "The screen tested about 22,000 reagents; this is a random part of those that have a named target and a result. Over the whole deposit, 403 (1.9%) got an active call. 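Unnormalised raw counts per well; ratio z-scores behind the hit calls and whether each hit raises or lowers signal are not deposited.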 Entries without a mark were called inactive. The numbers tell different reagents against one gene apart. The record does not give: the amount of reagent."}
{"Gene": "eIF3j", "dsRNA no.": 1, "induced reporter light, run 1, well a": 1.43e5, "induced reporter light, run 1, well b": 1.41e5, "control promoter light, run 1, well a": 1.70e5, "control promoter light, run 1, well b": 1.57e5, "uninduced reporter light, run 1, well a": 13588}
{"Gene": "CG10510", "dsRNA no.": 1, "induced reporter light, run 1, well a": 1.48e5, "induced reporter light, run 1, well b": 1.67e5, "control promoter light, run 1, well a": 1.25e5, "control promoter light, run 1, well b": 1.58e5, "uninduced reporter light, run 1, well a": 11655}
{"Gene": "Zasp67", "dsRNA no.": 1, "induced reporter light, run 1, well a": 2.38e5, "induced reporter light, run 1, well b": 1.82e5, "control promoter light, run 1, well a": 3.17e5, "control promoter light, run 1, well b": 2.71e5, "uninduced reporter light, run 1, well a": 10925}
{"Gene": "CG7298", "dsRNA no.": 1, "induced reporter light, run 1, well a": 1.21e5, "induced reporter light, run 1, well b": 1.31e5, "control promoter light, run 1, well a": 71175, "control promoter light, run 1, well b": 87050, "uninduced reporter light, run 1, well a": 9035}
{"Gene": "Adss", "dsRNA no.": 1, "induced reporter light, run 1, well a": 1.24e5, "induced reporter light, run 1, well b": 1.29e5, "control promoter light, run 1, well a": 1.27e5, "control promoter light, run 1, well b": 1.17e5, "uninduced reporter light, run 1, well a": 11885}
{"Gene": "mTerf5", "dsRNA no.": 1, "induced reporter light, run 1, well a": 2.13e5, "induced reporter light, run 1, well b": 2.25e5, "control promoter light, run 1, well a": 2.05e5, "control promoter light, run 1, well b": 2.04e5, "uninduced reporter light, run 1, well a": 15500}
{"Gene": "AGBE", "dsRNA no.": 1, "induced reporter light, run 1, well a": 1.80e5, "induced reporter light, run 1, well b": 1.91e5, "control promoter light, run 1, well a": 1.83e5, "control promoter light, run 1, well b": 1.92e5, "uninduced reporter light, run 1, well a": 14370}
{"Gene": "CG10026", "dsRNA no.": 1, "induced reporter light, run 1, well a": 92055, "induced reporter light, run 1, well b": 82390, "control promoter light, run 1, well a": 93470, "control promoter light, run 1, well b": 1.54e5, "uninduced reporter light, run 1, well a": 6450}
{"Gene": "CG14762", "dsRNA no.": 1, "induced reporter light, run 1, well a": 50365, "induced reporter light, run 1, well b": 69985, "control promoter light, run 1, well a": 71570, "control promoter light, run 1, well b": 78255, "uninduced reporter light, run 1, well a": 2988}
{"Gene": "CG14762", "dsRNA no.": 2, "induced reporter light, run 1, well a": 1.94e5, "induced reporter light, run 1, well b": 1.72e5, "control promoter light, run 1, well a": 2.15e5, "control promoter light, run 1, well b": 2.08e5, "uninduced reporter light, run 1, well a": 16550}
{"Gene": "pk", "dsRNA no.": 1, "induced reporter light, run 1, well a": "2.10e5 (active)", "induced reporter light, run 1, well b": 1.94e5, "control promoter light, run 1, well a": 2.79e5, "control promoter light, run 1, well b": 2.67e5, "uninduced reporter light, run 1, well a": 25130}
{"Gene": "pk", "dsRNA no.": 2, "induced reporter light, run 1, well a": 2.03e5, "induced reporter light, run 1, well b": 2.54e5, "control promoter light, run 1, well a": 3.01e5, "control promoter light, run 1, well b": 2.53e5, "uninduced reporter light, run 1, well a": 19210}

A few values from the entries so far.
Result of pk #2 in “induced reporter light, run 1, well b”: 2.54e5
eIF3j, uninduced reporter light, run 1, well a = 13588
